Measurements taken from the supplement of paper PMC6078165.
± gives the standard deviation of the averaged measurements. The reference is the same well before dosing, and untreated signal decays as well.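 The cancer cells are triple-negative breast cancer lines of basal-like or mesenchymal-like type, grown without fibroblasts. A drop in red signal reflects loss of mitochondrial integrity, a stand-in for apoptotic death.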

Assays:
[1] = system: MDAMB436; assay: relative JC-1 red fluorescence (viability) vs pre-drug, monoculture (fraction); higher = more viable cancer cells; settings: coculture fibroblast: none (monoculture)
Procedure: (§1)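 JC-1 labelled TNBC cells grown in monoculture (density kept equal with unlabelled cancer cells) in 384-well plates in FluoroBrite medium, treated with one of 42 anticancer drugs at 0.1, 1, 10 or 100 uM. JC-1 red fluorescence (mitochondrial integrity, surrogate of apoptotic death) was read by plate reader every 8 h for 72 h. Values are normalised to each well's pre-drug value, with background from alamethicin. The stock of one drug was tenfold lower, so its dose labels may be too high. Monoculture values are repeated alongside each fibroblast plate and are averaged here.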

[2] = system: HCC1143; assay: as above; settings: coculture fibroblast: none (monoculture)
Procedure: as §1

CN(C)CCOc1ccc(/C(=C(/CCCl)c2ccccc2)c2ccccc2)cc1 [Toremifene]
relative JC-1 red fluorescence
Settings	8 h	16 h	24 h	32 h	40 h	48 h	56 h	64 h	72 h
[1], 0.1 µM	0.869 ± 0.0097	0.7206 ± 0.0039	0.739 ± 0.0039	0.6915 ± 0.0065	0.676 ± 0.01	0.682 ± 0.011	0.671 ± 0.011	0.674 ± 0.017	0.688 ± 0.0093
[1], 1 µM	0.884 ± 0.016	0.794 ± 0.0095	0.7739 ± 0.002	0.7122 ± 0.0013	0.683 ± 0.014	0.666 ± 0.0092	0.643 ± 0.007	0.633 ± 0.0083	0.6226 ± 0.0058
[1], 10 µM	0.907 ± 0.01	0.88 ± 0.041	0.869 ± 0.034	0.809 ± 0.02	0.769 ± 0.014	0.729 ± 0.012	0.692 ± 0.0079	0.66 ± 0.0066	0.636 ± 0.0076
[1], 100 µM	0.537 ± 0.024	0.404 ± 0.022	0.359 ± 0.032	0.282 ± 0.035	0.227 ± 0.032	0.183 ± 0.033	0.146 ± 0.032	0.111 ± 0.031	0.0839 ± 0.034
[2], 0.1 µM	0.91429 ± 0.0003	0.795 ± 0.016	0.723 ± 0.025	0.673 ± 0.026	0.63 ± 0.036	0.593 ± 0.035	0.562 ± 0.047	0.549 ± 0.05	0.53 ± 0.058
[2], 1 µM	0.9019 ± 0.0026	0.831 ± 0.012	0.765 ± 0.011	0.715 ± 0.014	0.665 ± 0.02	0.629 ± 0.019	0.605 ± 0.022	0.579 ± 0.027	0.562 ± 0.02
[2], 10 µM	0.9435 ± 0.0059	0.8923 ± 0.0075	0.8433 ± 0.0018	0.8035 ± 0.0073	0.7565 ± 0.0053	0.7022 ± 0.0024	0.6707 ± 0.0043	0.646 ± 0.012	0.615 ± 0.012
[2], 100 µM	0.355 ± 0.052	0.266 ± 0.049	0.227 ± 0.043	0.181 ± 0.041	0.138 ± 0.034	0.113 ± 0.032	0.0856 ± 0.029	0.0605 ± 0.03	0.0378 ± 0.024
